Data on four molecules can be found in doi:10.64898/2025.12.20.695697.

To fix the notation:
T1: 3xFLAG::RHEB-1 (C. elegans) (UniProt P34443)
T1 sequence: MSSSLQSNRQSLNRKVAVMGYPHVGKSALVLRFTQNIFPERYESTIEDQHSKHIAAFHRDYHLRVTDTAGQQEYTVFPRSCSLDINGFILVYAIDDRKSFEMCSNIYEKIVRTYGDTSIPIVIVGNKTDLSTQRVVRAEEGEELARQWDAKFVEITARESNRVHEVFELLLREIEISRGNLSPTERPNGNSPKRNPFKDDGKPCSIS

B1: VHA-9 (protein, UniProt Q23680 1-121)
chain: MASAAKGKILAVIGDEDTVVGFLLGGVGELNKARKPNYLIVDKQTTVQEIEEAFNGFCARDDIAIILINQHIAEMIRYAVDNHTQSIPAVLEIPSKEAPYDPSKDSILNRARGLFNPEDFR
B2: NPP-18 (protein, UniProt O45933 1-363)
chain: MQEDDSVKPFQTVGAHRDLIHCVSFDPHGRRMATCASDMTMAIWDRKPDGNWRRSAHWKCHGGAVWRVIWAHPEFGQIVATCSYDRTIVIWEEQIVRSEKDLKQKESQWIRRTIISDNRSDVTDICFSPRHLGLMMASCNVLGTVRIYEAPDIVDASRWNLIHELQAFHTRCGCVTWSLSRMHRPLIAVGSDEKKAENKKRVVIYENIDGLRKWQRINSLVFDLPCPITDLKFSPISMVDSHQLAVASGDVHVYNIKVARSAILEEDGVENPIQLADYNLIKVALLGDHRKAWRLRYNLMGSVISSTSLDGTLRSWKSLFVNQWVKLSEMNVDDYVPSPEEVRAFISSKTTERLPSQLEKTYF
B3: NPRL-3 (protein, UniProt Q20069 1-511)
chain: MSAKEVDFERESHLHAVMCFLTGQSGEKIVSIYPHRKPATKAPSKDPQPSSSNPGQCVKPVLTSVKDPSYGFGRVDTEFDMSLGMLAYVFKTQEIACNDGFDMKINNQRFVAYPKTWKARGESTNYQISIVFALKNGCEQHTASAYQTLSNKIAVSLVMLQNYFGFLEREDKWADNAEEPNKDHPLEEFAKTSFIVQPLAEMFEEVRNRGNIHKYLINFVELGFCDEAHALTKLNVVPKGRQEIDEIVRKMKPYHGILLLEDVWPTPDANPIVAKLLSHCSPDRSILDMSTASGIPIFEVFMIIRHLLQWTRAILIYPLCNTNIYTSATSPQPLDKMAEKFTAQFGNTIHLAAGLAHFNPPKTLDTFIRKNLPLHEQGVRAKLVVALLRHQMLMQLHQFYYILKPYSIAILPEPKEPCPAEFTKIIEESTLPNDVKGVVADICAEMLETTSYASVKRTLSLFVKVAPMMDGNHHLEEIKYKNNLDRTEIEGVFVSFKLVIATFRRPDFVAE

Results are given in words; binding and its absence hold for the method and conditions named. Binding seen in cells or lysates may run through a third protein. These calls come from enrichment with a bait or labelling near it, and not all partners need be listed. Tags and fused reporters may be left off the sequences shown.

The target of the test is T1, 3xFLAG::RHEB-1 (C. elegans). The test can be described thus: affinity purification with mass spectrometry.
Take NPRL-2 (C. elegans (endogenous)): the binding result is reported as “binds”.
Consider B1, for which the binding entry is recorded as “binds”.
As to B2, the binding result is reported as “binds”.
For B3, the binding entry is “binds”.
